Some results were stated once for a whole list of compounds, not compound by compound.
Tested on: B6C3F1/J mice
Experiment: Lifespan screening of compounds given via drinking water to B6C3F1/J mice
Assay type: in vivo, mouse
Settings: compound in drinking water from approx. 5 months of age throughout lifespan, 0.05<p<0.06

Compound	increase of mouse lifespan relative to controls
C[C@@H]1O[C@@H](O[C@@H]2C=C3CC[C@@H]4[C@H](CC[C@]5(C)[C@@H](c6ccc(=O)oc6)CC[C@]45O)[C@@]3(C)CC2)[C@H](O)[C@H](O)[C@H]1O [proscillaridin A]	over 15%
inulin	over 15%
